The list shows a part of the results.
B1: il10ra_site1_sap_19_mot_HHH_b2_02053_af2_000000006_0001_3_19_H_._HHH_b1_07370_0001_0000100001_0000002_0_0001 (protein)
chain: SSSSSDEEVEELLKEAEELAEEGNPEEAAKVLLEAVRLAIQAGDEEALQKVWEVVKELAKSSSSS
B2: il10ra_site1_sap_21_mot_HHH_b2_01447_af2_000000258_0001_1_20_H_._HHH_b1_00686_af2_0001_0000100006_0000001_0_0001 (protein)
chain: SSSSREEEIMARFQVMALVQTFNLSEEQEKLLEELAKELLEEGVDPREIAVRLFELARRLGSSSS
B3: il10ra_site1_sap_22_mot_HHH_b2_01729_af2_000000109_0001_43_56_H_._HHH_b1_03556_0001_0000200009_0000001_0_0001 (protein)
chain: SSSSSDEEELEELIRRIEELIEEGDDEEAVKVLQKLSHLAFRLNDQEVLEIILELAKRLRSSSSS
B4: il10ra_site1_normal_mot_HHH_b2_00475_000000107_0001_44_57_H_._HHH_b1_04775_af2_0001_0000100002_0000002_1 (protein)
chain: SSSSDEEQKVSQLLFRAVRLYYEGNPEEAEKLVEEALEIAKELNDPELEEYARIALHFIRNSSSS
B5: il10ra_site1_normal_mot_HHH_b1_06914_000000280_0001_1_18_H_._HHH_b1_02402_0001_0000300025_0000002_0_af2pred_0001 (protein)
chain: SSSSDRREIVRLSRKAIELLAEGDDEEARRVVEEAEEIAEENNNEVARVVLEFLLELIEKNSSSS
B6: il10ra_site1_sap_17_mot_HHH_b2_02497_000000141_0001_1_20_H_._HHH_b1_05715_af2_0001_0000500024_0000001_0_0001_af2pred_0001 (protein)
chain: SSSSSEIEEEVEELLEQAKRIDDLARRTYVLIRAYALAYKNNNEELLRKVREIAIKLSEESSSSS
B7: il10ra_site1_normal_mot_HHH_b2_02337_000000026_0001_38_52_H_._HHH_b2_06018_0001_0000100009_0000001_0 (protein)
chain: SSSSSDEEELEELLEELRRLVEEGDRERAAELAQRILRLAAELQDQEALQLLWKLVQELASSSSS
B8: il10ra_site1_sap_20_mot_HHH_b1_02397_af2_000000085_0001_39_57_H_._HHH_b2_04780_af2_0001_0000200009_0000002_0_0001_af2pred_0001 (protein)
chain: SSSSSDREERLKQVLELLRRILESDDPEEREELLEEAERLIEEAGNELLRVLLEFLRKALSSSSS
B9: il10ra_site1_normal_mot_HHH_b2_00643_000000120_0001_23_40_H_._HHH_b2_03794_0001_0000200009_0000001_0 (protein)
chain: SSSSDAIQEAWRAVKEAAELFQRGDPEEAEQLLEEALERLEELGNEIAVLQVEHLLRAIENSSSS
B10: il10ra_site1_sap_16_mot_HHH_b1_03763_000000209_0001_22_38_H_._HHH_b2_07824_0001_0000100003_0000002_0_0001_af2pred_0001 (protein)
chain: SSSSDEERREYHREIEELMEKGDPRKAAKLLSELFELAAREGDEEMIKLVAELARILLELVSSSS
B11: il10ra_site1_normal_mot_65b8060e20531850bca9f2e11f97d954_0001_af2_000000137_0001_17_31_H_._HHH_b1_06320_0001_0000300019_0000002_0 (protein)
chain: SSSSDQEEERALELIVRISRLLAEGDPERARELLEELEELVEELGDPKLRLSVRFLKALASSSSS
B12: il10ra_site1_sap_20_mot_HHH_b1_02997_000000220_0001_39_52_H_._HHH_b1_05632_af2_0001_0000100001_0000004_0_0001 (protein)
chain: SSSSSNEEVYELIQEALELLANGDPEEAERVLEEAQEIAEELGSPVMRHAVEYALKQVRGSSSSS
B13: il10ra_site1_sap_22_mot_HHH_b2_02736_000000092_0001_22_38_H_._HHH_b1_07250_0002_0000100006_0000001_0_0001 (protein)
chain: SSSSDEEVIRLIMKAAHLLIQGDPEQARELVEEAKELAEELNDPELERLVEIILRAVEAASSSSS
B14: il10ra_site1_normal_mot_8756ee2cf497b5429c717dfc0c0bcfd6_0001_000000186_0001_1_13_H_._HHH_b1_07345_af2_0001_0000300018_0000001_0 (protein)
chain: SSSSDEELEELFKLLEKIAKLLHEGDHEEAERLVEEAEELAKELGNDVALFQLEYLQRHINSSSS
B15: il10ra_site1_sap_11_mot_HHH_b2_06600_af2_000000211_0001_1_16_H_._HHH_b2_08166_af2_0001_0000400020_0000002_0_0001 (protein)
chain: SSSSSRYLELTIRFIEMLLEDGDTEAARFFIKALKDIAKRNNDPEAEERAEELERIVEELSSSSS
B16: il10ra_site1_sap_20_mot_HHH_b1_04100_af2_000000180_0001_1_19_H_._HHH_b1_02064_0001_0000300030_0000001_0_0001 (protein)
chain: SSSSDKAEELAERVIEELEELRRRGDAEEVYRLIKEAYEELLELNDPEAVRLLLRFLKQWTSSSS
B17: il10ra_site1_sap_17_mot_9368472692dc9678e81f248f6367350b_0001_000000260_0001_20_35_H_._HHH_b1_01010_0001_0000500026_0000002_0_0001_af2pred_0001 (protein)
chain: SSSSDEEVQRALELAAKASRVAHERGDAELSKELDELALRLFREGDPRLAEELRELAEKILSSSS
B18: il10ra_site1_normal_mot_HHH_b1_08176_000000188_0001_1_20_H_._HHH_b2_01313_af2_0001_0000300007_0000001_0 (protein)
chain: SSSSDQEALELAQRAFRAALRGNIEEAEELAEEALKIAQELNNERLARQIEQLLQALRAEGSSSS
B19: il10ra_site1_sap_20_mot_HHH_b1_03327_000000294_0001_1_19_H_._HHH_b2_05924_af2_0001_0000200004_0000001_0_0001 (protein)
chain: SSSSSDDQEVLEALREAFRLALRGNPEEAEKVLEEAEELAERAGDERLLEMIRNLLETLRSSSSS
B20: il10ra_site1_normal_mot_HHH_b2_05984_000000071_0001_38_52_H_._HHH_b1_05086_0001_0000100005_0000001_0_af2pred_0001 (protein)
chain: SSSSDEEVRRRAREIYEELQRLIEEGDEEEVRRLLEELIELARKGNDREAIRLAARILKLLSSSS
B21: il10ra_site1_sap_22_mot_HHH_b1_01821_000000158_0001_23_39_H_._HHH_b1_07966_af2_0001_0000300009_0000001_0_0001 (protein)
chain: SSSSDEEARHLLKLTLKFARRIQDEEAARFLVRAAQQIAKREGDEELLEEIERLLEELENSSSSS
B22: il10ra_site1_sap_9_mot_HHH_b1_06819_af2_000000053_0001_23_38_H_._5e49283646ac2375ff6560514cd19812_0001_0001_0000100001_0000001_0_0001_af2pred_dldesign_0_af2pred (protein)
chain: SSSSAAEEARAQALYERAVALAKAGKPEEAQEVLQELVDLANEKECLAAAQAANELLKLLSSSSS
B23: il10ra_site1_sap_18_mot_HHH_b2_00800_af2_000000047_0001_1_20_H_._HHH_b2_01695_0001_0000300037_0000002_0_0001 (protein)
chain: SSSSDAKEEAEELLEEAERLIEEGDPREAIRVLARAVALAFEGQDRELLQEIWRLVQELYSSSSS
B24: il10ra_site1_normal_mot_HHH_b1_02397_af2_000000085_0001_39_57_H_._HHH_b2_05327_0001_0000200010_0000002_0 (protein)
chain: SSSSSEEEEELEELLRRIEEAVRRGDPELFARLVQELLRLAFRLSDQEVLQELWELFRRAASSSS

Target: il10ra, Q13651
Experiment: yeast display titration

Binder	apparent Kd
B1	inactive: no binding seen
B2	inactive: no binding seen
B3	inactive: no binding seen
B4	inactive: no binding seen
B5	inactive: no binding seen
B6	inactive: no binding seen
B7	inactive: no binding seen
B8	inactive: no binding seen
B9	inactive: no binding seen
B10	inactive: no binding seen
B11	inactive: no binding seen
B12	inactive: no binding seen
B13	inactive: no binding seen
B14	inactive: no binding seen
B15	inactive: no binding seen
B16	inactive: no binding seen
B17	inactive: no binding seen
B18	inactive: no binding seen
B19	inactive: no binding seen
B20	inactive: no binding seen
B21	inactive: no binding seen
B22	inactive: no binding seen
B23	inactive: no binding seen
B24	inactive: no binding seen

As entered above.
B1 | apparent Kd: inactive: no binding seen
B6 | apparent Kd: inactive: no binding seen
